Assay [1] deals with natural SP-A in rat lung tissue (rat) (UniProt P08427). Nature of the assay: immunohistochemistry on rat lung tissue slices, HIS-IgG-HRP secondary.
For assay [2] the target is unchanged. Kind of assay: immunohistochemistry with synthesized functional polypeptide.

These are yes or no findings as the source states them, for the method shown. Some results given as binding are weak or reduced against the parent protein; the word gives no strength.

B1: Nb6 (VHH)
VHH: LQAQLAGQLQLVESGGGLVQPGGSLRLSCVVSGVTISNYGMTWVRQAPGKGLEWISTVYSNGHTYYADSVKGRFTISRDNAKNTLYLQMNSLKPEDTAKYYCKLTGETHRGQGTQVTVSSEPKTPKPQGPRGLAAAGAPVPYPDPLEPRAA
B1: in assay [1], the binding result is given as “binds”.

B2: synthesized functional polypeptide of Nb18 (without MQAQKAG at the N-end) (VHH)
VHH: QLQLVESGGGLVQPGGSLMLSCVVSGVTISNYGMTWVRQAPGKGLEWISTIYSNGHTYYADSVKGRFTASRDNAKNTLYLQMNSLKPEDTAKYYCKLTGETHRGQGTQVTVSSEPKTPKPQGPRGLAAAGAPVPYPDPLEPRAA
As to B2, the binding result in assay [2] is “binds”.

(Values after patent US20140314832A1.)
